According to paper doi:10.1101/2025.07.29.665963:
Numbering of substitutions follows the chain as printed. These are yes or no findings as the source states them, for the method shown. In cells and extracts the contact can be indirect. Some binding calls cover weakened binding; strength is not graded here. Tags and fused reporters may be left off the sequences shown.

The chains behind the UniProt entries cited, without tags or fusion partners.
UniProt P50750: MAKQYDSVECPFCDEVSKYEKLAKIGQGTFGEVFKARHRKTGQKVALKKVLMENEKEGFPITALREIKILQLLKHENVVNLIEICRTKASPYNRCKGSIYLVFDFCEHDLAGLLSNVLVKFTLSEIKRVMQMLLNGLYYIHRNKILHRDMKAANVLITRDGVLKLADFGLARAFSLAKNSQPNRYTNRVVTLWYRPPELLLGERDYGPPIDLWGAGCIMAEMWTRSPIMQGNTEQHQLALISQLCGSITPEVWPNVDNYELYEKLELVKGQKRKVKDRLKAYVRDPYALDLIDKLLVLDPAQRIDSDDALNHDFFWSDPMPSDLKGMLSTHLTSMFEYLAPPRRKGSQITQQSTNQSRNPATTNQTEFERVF
UniProt O00472: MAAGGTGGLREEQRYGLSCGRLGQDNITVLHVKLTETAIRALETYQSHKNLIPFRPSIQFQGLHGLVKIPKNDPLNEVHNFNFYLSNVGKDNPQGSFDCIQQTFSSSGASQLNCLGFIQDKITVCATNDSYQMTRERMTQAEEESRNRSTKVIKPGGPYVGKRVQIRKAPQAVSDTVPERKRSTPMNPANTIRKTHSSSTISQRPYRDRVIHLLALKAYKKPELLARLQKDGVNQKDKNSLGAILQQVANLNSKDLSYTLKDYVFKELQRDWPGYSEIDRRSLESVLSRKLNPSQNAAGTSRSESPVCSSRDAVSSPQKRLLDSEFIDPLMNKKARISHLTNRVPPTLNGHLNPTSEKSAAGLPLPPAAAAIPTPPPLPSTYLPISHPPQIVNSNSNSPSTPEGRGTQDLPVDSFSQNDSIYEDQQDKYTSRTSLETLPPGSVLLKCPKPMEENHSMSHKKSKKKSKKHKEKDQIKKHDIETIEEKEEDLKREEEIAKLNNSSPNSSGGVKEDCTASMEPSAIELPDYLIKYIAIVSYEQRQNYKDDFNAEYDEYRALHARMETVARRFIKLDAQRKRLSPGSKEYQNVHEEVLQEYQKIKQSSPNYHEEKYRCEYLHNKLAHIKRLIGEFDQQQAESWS

Experiments:
FLAG-ENL-T1 (human) = target: T1, FLAG-ENL-T1 (human) (UniProt Q03111); experiment: co-IP
T1 sequence: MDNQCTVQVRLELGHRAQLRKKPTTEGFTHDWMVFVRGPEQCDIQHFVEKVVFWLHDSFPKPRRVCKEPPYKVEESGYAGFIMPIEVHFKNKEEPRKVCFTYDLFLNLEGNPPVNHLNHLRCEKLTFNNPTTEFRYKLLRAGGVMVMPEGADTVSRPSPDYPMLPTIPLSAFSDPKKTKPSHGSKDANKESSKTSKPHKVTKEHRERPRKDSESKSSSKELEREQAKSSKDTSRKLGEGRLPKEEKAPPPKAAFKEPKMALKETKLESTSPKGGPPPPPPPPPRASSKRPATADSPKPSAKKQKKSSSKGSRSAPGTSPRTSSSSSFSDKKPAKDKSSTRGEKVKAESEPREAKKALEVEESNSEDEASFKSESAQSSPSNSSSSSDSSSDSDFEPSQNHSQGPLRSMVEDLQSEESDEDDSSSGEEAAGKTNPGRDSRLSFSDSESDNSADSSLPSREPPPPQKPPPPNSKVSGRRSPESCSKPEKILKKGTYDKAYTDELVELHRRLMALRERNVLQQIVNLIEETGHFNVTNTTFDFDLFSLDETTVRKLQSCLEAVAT

FLAG-ENL-T1-3A (human) = target: T2, FLAG-ENL-T1-3A (human) (UniProt Q03111); experiment: co-IP
T2 sequence: T1 sequence with K61A, R63A, K67A

Substance	binding (FLAG-ENL-T1 (human))	binding (FLAG-ENL-T1-3A (human))
CDK9 (from UniProt P50750 1-372)	binds	binds
ELL2 (from UniProt O00472 1-640)	binds	binds
